A negative result means that nothing was seen under these conditions. For some assays here: Weaker means in comparison with the reference protein, sequence or condition of that experiment. For some assays here: Construct, isoform or probe ends are uncertain for at least one entry.
Tests used:
[1] = biological target: PSMA (prostate specific membrane antigen) (Homo sapiens) (UniProt Q04609); assay: inhibition of the protein; conditions: 2'-F pyrimidines
[2] = test system: HER2 (rHER2) (Rattus norvegicus); assay: SPR; conditions: 2'-F pyrimidines, purified recombinant protein, label: 5'-biotin-spacer9-G
[3] = biological target: PSMA (prostate specific membrane antigen) (Homo sapiens) (UniProt Q04609); assay: activity in cells; conditions: 2'-F pyrimidines, protein on the cell surface
[4] = no inhibition at 200 nM RNA, purified recombinant protein, protein details: R&D Systems 4234-ZN-010, variant of A9g
[5] = inhibition completely lost, purified recombinant protein, protein details: R&D Systems 4234-ZN-010, variant of A9g
[6] = inhibition abrogated, purified recombinant protein, protein details: R&D Systems 4234-ZN-010, variant of A9g
[7] = comparable to A9g, purified recombinant protein, protein details: R&D Systems 4234-ZN-010, variant of A9g
[8] = NAALADase inhibited as well as A9, 800 nM RNA, purified recombinant protein, protein details: R&D Systems 4234-ZN-010, variant of A9

Chains of the proteins cited; added tags and fusions are not shown. A change or cut given only in a name is not applied to a line headed by its entry. Chains listed by the source or under a name are the forms on record and can include a tag or linker.
UniProt Q04609: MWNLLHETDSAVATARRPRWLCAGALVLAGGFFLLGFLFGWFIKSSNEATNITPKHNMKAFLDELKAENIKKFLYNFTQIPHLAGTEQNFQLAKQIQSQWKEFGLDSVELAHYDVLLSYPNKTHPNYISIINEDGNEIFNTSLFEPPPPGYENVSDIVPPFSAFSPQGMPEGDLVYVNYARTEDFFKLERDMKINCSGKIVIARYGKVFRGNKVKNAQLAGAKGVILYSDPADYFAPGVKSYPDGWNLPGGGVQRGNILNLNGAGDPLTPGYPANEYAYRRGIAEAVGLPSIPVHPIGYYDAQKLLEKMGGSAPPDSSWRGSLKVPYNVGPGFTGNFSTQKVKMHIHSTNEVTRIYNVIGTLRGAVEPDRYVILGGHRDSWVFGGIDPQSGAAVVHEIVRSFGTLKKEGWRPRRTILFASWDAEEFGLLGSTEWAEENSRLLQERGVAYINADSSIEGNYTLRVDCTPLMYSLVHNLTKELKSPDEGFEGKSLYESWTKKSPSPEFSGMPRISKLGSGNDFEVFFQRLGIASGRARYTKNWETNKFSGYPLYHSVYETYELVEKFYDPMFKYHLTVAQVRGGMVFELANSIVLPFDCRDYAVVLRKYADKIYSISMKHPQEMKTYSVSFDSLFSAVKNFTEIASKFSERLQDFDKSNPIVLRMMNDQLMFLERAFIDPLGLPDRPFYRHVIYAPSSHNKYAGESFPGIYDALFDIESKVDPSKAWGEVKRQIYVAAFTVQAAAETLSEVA
HER2 (rHER2) (Rattus norvegicus), one chain, as listed by the source: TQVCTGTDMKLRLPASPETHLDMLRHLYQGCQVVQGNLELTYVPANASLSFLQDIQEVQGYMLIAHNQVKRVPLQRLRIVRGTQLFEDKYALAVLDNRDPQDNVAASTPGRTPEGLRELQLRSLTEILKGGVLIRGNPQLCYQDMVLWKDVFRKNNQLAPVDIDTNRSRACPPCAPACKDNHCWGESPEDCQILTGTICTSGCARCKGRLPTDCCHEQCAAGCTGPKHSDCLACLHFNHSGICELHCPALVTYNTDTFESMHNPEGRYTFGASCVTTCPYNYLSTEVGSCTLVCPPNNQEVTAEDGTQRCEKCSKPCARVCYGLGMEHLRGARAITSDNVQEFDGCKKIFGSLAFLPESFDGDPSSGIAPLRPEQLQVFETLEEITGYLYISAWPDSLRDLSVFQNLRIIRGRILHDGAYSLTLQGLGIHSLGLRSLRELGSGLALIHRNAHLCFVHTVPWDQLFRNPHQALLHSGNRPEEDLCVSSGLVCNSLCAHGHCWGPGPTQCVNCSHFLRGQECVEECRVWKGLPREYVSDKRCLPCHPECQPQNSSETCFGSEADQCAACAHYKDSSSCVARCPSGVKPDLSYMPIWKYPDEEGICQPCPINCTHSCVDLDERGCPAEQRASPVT

GGGACCGAAAAAGACCUAGUCUACGUUCCC [A9j]
functional effect of the aptamer [1, 4]: not active

GGGACCGAAAAAGACCUGACUUCUAUACUAAGUCUACGAUCCC [A9g.7 (U39A)]
functional effect of the aptamer [1, 5]: not active

GGGACCGAAAAAGACCUGACUUCUAUACUAAGUCUACGCUCCC [A9g.8 (U39C)]
functional effect of the aptamer [1, 5]: not active

GGGACCGAAAAAGACCUGACUUCUAUACUAAGUCUACGGUCCC [A9g.3 (U39G)]
functional effect of the aptamer [1, 6]: not active

GGGACCGAAAAAGACCUGACUUCUAUACUAAGUCUACGUUCCC [A9g 5'-biotin]
binding result ([2]; no appreciable interaction, specificity control, variant of A9g): no binding

GGGACCGAAAAAGACCUGACUUCUAUACUAAGUCUACGUUCCC [A9g-IRDye800CW]
functional effect of the aptamer ([1]; inhibits to similar extent as A9g, purified recombinant protein, protein details: R&D Systems 4234-ZN-010, label: IRDye800CW, variant of A9g): active

GGGACCGAAAAAGACCUGACUUCUAUACUAAGUCUACGUUCCC [A9g]
functional effect of the aptamer ([3]; internalization, no loss vs A9, protein details: 22Rv1 (1.7) prostate cancer cells, variant of A9, dose not given here): active

GGGACCGAAAAAGACCUGACUUCUAUACUAGGUCUACGUUCCC [A9g.5]
functional effect of the aptamer ([1]; loss of inhibition, purified recombinant protein, protein details: R&D Systems 4234-ZN-010, variant of A9g): not active

GGGACCGAAAAAGACCUGGCUUCUAUACUAAGUCUACGUUCCC [A9g.6 5'-biotin]
binding result ([2]; no measurable binding, variant of A9g.6): no binding

GGGACCGAAAAAGACCUGGCUUCUAUACUAAGUCUACGUUCCC [A9g.6-IRDye800CW]
functional effect of the aptamer ([1]; inhibits to a much lesser degree than A9g, purified recombinant protein, protein details: R&D Systems 4234-ZN-010, label: IRDye800CW, variant of A9g.6): less active

GGGACCGAAAAAGACCUGGCUUCUAUACUAAGUCUACGUUCCC [A9g.6]
functional effect of the aptamer [1, 6]: not active | functional effect of the aptamer ([1]; no inhibition, protein in an extract, variant of A9g): not active | functional effect of the aptamer ([3]; no effect on migration or invasion, variant of A9g): not active | functional effect of the aptamer ([3]; no internalization, protein details: 22Rv1 (1.7) prostate cancer cells, variant of A9g): not active

GGGACCGAAAAAGCCCUGACUUCUAUACUAAGGCUACGUUCCC [A9g.2]
functional effect of the aptamer [1, 7]: active

GGGACCGAAAAAGGCCUGACUUCUAUACUAAGCCUACGUUCCC [A9g.1]
functional effect of the aptamer [1, 7]: active

GGGACCGAAAAAUACGUUCCC [A9k]
functional effect of the aptamer [1, 4]: not active

GGGACGAUGCGGACCGAAAAAGACCUGACUUCUAUACUAAGUCUACGUUCCCAGACGACCC [A9d]
functional effect of the aptamer [1, 8]: active

GGGACGAUGCGGACCGAAAAAGACCUGACUUCUAUACUAAGUCUACGUUCCCAGACGCCC [A9b]
functional effect of the aptamer [1, 8]: active

GGGAGGACGAUGCGGACCGAAAAAGACCUGACUUCUAUACUAAGUCUACGUUCCCAGACGACUCCC [A9a]
functional effect of the aptamer [1, 8]: active

GGGAGGACGAUGCGGACCGAAAAAGACCUGACUUCUAUACUAAGUCUACGUUCCCAGACGACUCGCCCGA [A9]
functional effect of the aptamer ([1]; NAALADase inhibited, purified recombinant protein, protein details: gift of D. Spencer, Baylor College of Medicine, dose not given here): active | functional effect of the aptamer ([3]; internalization vs PC-3, qRT-PCR, protein details: 22Rv1 (1.7) prostate cancer cells, dose not given here): active

GGGAUGCGGACCGAAAAAGACCUGACUUCUAUACUAAGUCUACGUUCCCAGACCC [A9c]
functional effect of the aptamer [1, 8]: active

GGGCCGAAAAAGACCUGACUUCUAUACUAAGUCUACGUCCC [A9L]
functional effect of the aptamer ([1]; equally effective as A9g, purified recombinant protein, protein details: R&D Systems 4234-ZN-010, variant of A9g): active | functional effect of the aptamer ([3]; internalization, no loss vs A9, protein details: 22Rv1 (1.7) prostate cancer cells, variant of A9g): active

GGGCCUGACUUCUAUACUAAGCCC [A9i]
functional effect of the aptamer [1, 4]: not active

GGGCGGACCGAAAAAGACCUGACUUCUAUACUAAGUCUACGUUCCCACC [A9e]
functional effect of the aptamer [1, 8]: active

GGGCGGACCGAAAAAGACCUGACUUCUAUACUAAGUCUACGUUCCCAGCCC [A9f]
functional effect of the aptamer [1, 8]: active

GGGGAAAAAGACCUGACUUCUAUACUAAGUCUACCCC [A9h]
functional effect of the aptamer [1, 4]: not active
